These results are taken from publication PMC3576375.

For test [1], the target named is T1, CT584-HA (Chlamydia trachomatis L2/434) (UniProt O84588).
T1 sequence: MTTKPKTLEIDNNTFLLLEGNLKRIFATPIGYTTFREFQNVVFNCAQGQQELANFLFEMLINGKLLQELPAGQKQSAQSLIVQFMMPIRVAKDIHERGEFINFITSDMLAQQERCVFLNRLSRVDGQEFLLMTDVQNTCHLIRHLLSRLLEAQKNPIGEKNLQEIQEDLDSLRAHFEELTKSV
Put plainly: co-IP; reverse IP: lysates of Y. enterocolitica ΔHOPEMT co-expressing Myc-tagged substrate and HA-tagged chaperone, grown in non-secreting conditions and also in T3S-inducing conditions (without Ca2+); IP with mouse anti-HA (HA-7) on Protein G agarose; blot with anti-Myc.

Test [2] has as its target CT695 (Chlamydia trachomatis L2/434). In words: two-hybrid; bacterial adenylate cyclase two-hybrid (BACTH) in Cya-deficient E. coli BTH101; T18 and T25 fusions; blue colonies on LB with IPTG and X-gal, 24 h at 28°C, then β-galactosidase activity with ONPG; Fig. 1B and 1C.
Test [3] has as its target CT620 (Chlamydia trachomatis L2/434). The test is described as above.
Test [4] concerns the target CT621 (Chlamydia trachomatis L2/434). The description is as above.
The target in test [5] is CT711 (Chlamydia trachomatis L2/434). Described as above.
Test [6] has as its target CT712 (Chlamydia trachomatis L2/434). The description is as above.
The target in test [7] is CT619 (Chlamydia trachomatis L2/434). The test is described as above.
Test [8] deals with CT082 (Chlamydia trachomatis L2/434). The test is described as above.
Test [9] addresses GST-CT082_(330–450) (Chlamydia trachomatis L2/434). In words: far-Western, overlay or dot blot; extracts of E. coli expressing GST fusions resolved by SDS-PAGE and blotted on nitrocellulose; membrane probed with 1.2 µg purified (6x)His-CT584 in 20 mM HEPES pH 7.5, 50 mM KCl, 10 mM MgCl2, 1 mM DTT, 0.1% Nonidet P-40, 16 h at 4°C; detection with anti-His; only the binder purified.
The target in test [10] is GST-CT082_(101–560) (Chlamydia trachomatis L2/434). The test is described as above.
Test [11] addresses GST-CT082_(1–100) (Chlamydia trachomatis L2/434). The test is described as above.
Test [12] deals with GST-CT082 (Chlamydia trachomatis L2/434). The description is as above.
Test [13] deals with GST-CT082_(201–560) (Chlamydia trachomatis L2/434). The description is as above.
The target in test [14] is GST-CT082_(1–200) (Chlamydia trachomatis L2/434). The description is as above.
The target in test [15] is CT082-Myc (Chlamydia trachomatis L2/434). In words: co-IP; lysates of Y. enterocolitica ΔHOPEMT co-expressing Myc-tagged substrate and HA-tagged chaperone, grown in non-secreting conditions (5 mM Ca2+); IP with mouse anti-Myc (9E10) on Protein G agarose, 2 h at 4°C; washes in 20 mM Tris-HCl pH 8, 150 mM NaCl, 1% Triton X-100; blot with anti-HA.

These are yes or no findings as the source states them, for the method shown. For some of these results: A result given as binding can be weak or reduced; the word gives no strength. For some of these results: Where a sequence is shown, tags or fusion partners need not be part of it. For some of these results: In cells and extracts the contact can be indirect.

“CT695-Myc (Chlamydia trachomatis L2/434)”: the binding result in test [1] is recorded as “no binding”.

For the molecule “CT082-Myc (Chlamydia trachomatis L2/434)”, in [1], the binding result is listed as “binds”.

B1: CT584 (protein, UniProt O84588 1-183)
chain: T1 sequence
With B1, the binding entry in test [2], in test [3], in test [4], in [5], in [6] and in test [7] was “no binding” each time. In addition, the binding entry in test [8] is on record as “binds”.

B2: (6x)His-CT584 (protein, UniProt O84588 1-183)
chain: T1 sequence
B2: the binding entry in test [9] is listed as “binds”; in test [10] it was “binds”; in [11], “no binding”; in test [12], “binds”; in test [13] it was “binds”; in test [14] it was “no binding”.

B3: CT584-HA (protein, UniProt O84588 1-183)
chain: T1 sequence
Regarding B3, the binding result in test [15] is reported as “binds”.
